For one substance, binding results are on record in paper PMC4536226.

No constants are given. Whether binding was seen depends on the method and setting. In cells and extracts the contact can be indirect. Binding can be weak; no strength is given. Sequences can lack the tags named with a protein.

This test addresses T1, Myc-tagged Cos2 (Myc-Cos2) (Drosophila) (UniProt O16844).
T1 sequence: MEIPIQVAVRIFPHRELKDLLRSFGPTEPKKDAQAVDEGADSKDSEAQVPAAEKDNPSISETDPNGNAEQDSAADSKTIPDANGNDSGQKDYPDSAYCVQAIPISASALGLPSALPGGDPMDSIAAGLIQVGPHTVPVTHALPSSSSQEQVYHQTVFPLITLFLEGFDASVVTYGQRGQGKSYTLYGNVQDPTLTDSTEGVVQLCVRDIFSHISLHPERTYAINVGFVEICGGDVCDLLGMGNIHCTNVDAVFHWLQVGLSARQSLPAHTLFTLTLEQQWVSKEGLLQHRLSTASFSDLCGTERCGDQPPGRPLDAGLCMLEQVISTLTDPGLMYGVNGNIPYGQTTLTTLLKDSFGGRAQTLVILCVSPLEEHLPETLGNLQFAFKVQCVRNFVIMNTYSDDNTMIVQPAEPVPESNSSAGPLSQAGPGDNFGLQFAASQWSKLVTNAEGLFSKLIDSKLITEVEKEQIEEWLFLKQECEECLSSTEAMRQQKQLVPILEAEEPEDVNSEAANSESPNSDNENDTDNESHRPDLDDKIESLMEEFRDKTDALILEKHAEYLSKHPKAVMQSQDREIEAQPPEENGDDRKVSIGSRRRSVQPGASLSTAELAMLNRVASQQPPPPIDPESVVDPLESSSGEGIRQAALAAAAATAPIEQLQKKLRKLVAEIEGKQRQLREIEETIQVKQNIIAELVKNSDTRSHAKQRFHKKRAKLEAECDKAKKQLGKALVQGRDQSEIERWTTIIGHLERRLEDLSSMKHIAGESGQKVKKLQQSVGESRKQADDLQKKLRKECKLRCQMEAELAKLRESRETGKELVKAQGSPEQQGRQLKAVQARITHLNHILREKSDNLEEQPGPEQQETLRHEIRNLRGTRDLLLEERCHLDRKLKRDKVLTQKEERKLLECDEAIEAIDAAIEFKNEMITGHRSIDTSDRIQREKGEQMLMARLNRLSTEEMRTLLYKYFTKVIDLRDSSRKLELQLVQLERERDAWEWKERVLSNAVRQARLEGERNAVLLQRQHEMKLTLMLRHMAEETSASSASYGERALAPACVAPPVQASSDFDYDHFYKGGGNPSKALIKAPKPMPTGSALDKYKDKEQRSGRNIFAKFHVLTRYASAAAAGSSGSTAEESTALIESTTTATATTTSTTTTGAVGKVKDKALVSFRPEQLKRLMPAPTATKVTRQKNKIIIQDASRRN
As to the kind of experiment: co-IP; S2R+ cells transfected with FLAG-Ci variants and Myc-Cos2, and with dsRNA against Su(fu); either anti-FLAG or anti-Myc IP; lysis in PBS with 1.0% Triton X-100.

With “CiZnCΔCORD (Drosophila) (domain or fragment)”, the binding entry was “binds weakly”.
